# Experimental data published in PubChem BioAssay AID194 (DTP/NCI, 2004).
# The list shows only some results of the screen, not a fair sample: it is rich in T/C values a quarter to a half above the control, in often repeated tests (any T/C) and in doses without a T/C. Further doses and runs are listed elsewhere. T/C gives the treated animals as a percentage of the vehicle group. Schedule codes are those of the source, taken here to give the interval after Q, in days (D) or hours (H), and the number of doses after X. Some entries give survivors of the animals treated and no T/C: the source holds a T/C of zero for them, seemingly a mark for toxic or unscored doses. Some survivor counts are full or nearly so, which does not show that the dose was tolerated: the source hardly ever lists a survival T/C far under the control, and the zero likely stands for such cases as well. Counts of survivors are from the toxicity check (mostly the fifth day) where no day follows; animals may have died later. Signs of the kind (2×) stand for listed records that agree. Some doses were run more than once; their values stand side by side, smallest first. Where survival is the endpoint, this PubChem deposit counts one and a half times the control or more as active, and values a quarter to a half above the control carry no call in these data; other NCI protocols may use other cut-offs. Some T/C values carry the count of animals alive at the toxicity check (mostly the fifth day); where none is given, no animal had died by that day.
# Tested on: BDF1 mice, B16 melanoma s.c., survival/tumor T/C
# Test: NCI In Vivo Anticancer Drug Screen. Data for tumor model B16 Melanoma (subcutaneous) in B6D2F1 (BDF1) mice
# Protocol: The antitumor activity of compounds was measured in mice bearing transplantable tumors. Survival or tumor size were measured and the results are expressed as the measurement made in the treated group (T) divided by the measurement made in the vehicle treated control group (C). The tumor model used in this assay is B16 Melanoma (subcutaneous) in B6D2F1 (BDF1) mice
# [1] = T/C endpoint: median survival time, dose: 300.0 mg/kg/injection, schedule: Q01DX009 (ip), vehicle: saline, higher T/C = longer survival
smiles,measurement,setting,value
Cc1c(N)nc([C@H](CC(N)=O)NC[C@H](N)C(N)=O)nc1C(=O)N[C@H](C(=O)N[C@H](C)[C@@H](O)[C@H](C)C(=O)N[C@H](C(=O)NCCc1nc(-c2nc(C(=O)NCCC[S+](C)C)cs2)cs1)[C@@H](C)O)C(OC1OC(CO)C(O)C(O)C1OC1OC(CO)C(O)C(OC(N)=O)C1O)c1cnc[nH]1 (some centres not stated),T/C,"T/C endpoint: median survival time, dose: 0.5 mg/kg/injection, schedule: Q01DX009 (ip), vehicle: saline, higher T/C = longer survival",127 % of control
same,T/C,"T/C endpoint: median survival time, dose: 2.0 mg/kg/injection, schedule: Q01DX009 (ip), vehicle: saline, higher T/C = longer survival","126, 133, 145 % of control"
same,T/C,"T/C endpoint: median survival time, dose: 2.0 mg/kg/injection, schedule: Q01DX009 (ip), vehicle: water, higher T/C = longer survival",139 % of control
same,T/C,"T/C endpoint: median survival time, dose: 2.0 mg/kg/injection, schedule: Q01DX010 (ip), vehicle: water, higher T/C = longer survival",139 % of control
same,T/C,"T/C endpoint: median survival time, dose: 3.0 mg/kg/injection, schedule: Q01DX009 (ip), vehicle: saline, higher T/C = longer survival",127 % of control
same,T/C,"T/C endpoint: median survival time, dose: 4.0 mg/kg/injection, schedule: Q01DX009 (ip), vehicle: saline, evaluated on day 5, higher T/C = longer survival",148 and 159 % of control
same,T/C,"T/C endpoint: median survival time, dose: 4.0 mg/kg/injection, schedule: Q01DX009 (ip), vehicle: saline, evaluated on day 60, higher T/C = longer survival","126, 130, 137, 164 % of control"
same,T/C,"T/C endpoint: median survival time, dose: 4.0 mg/kg/injection, schedule: Q01DX009 (ip), vehicle: water, higher T/C = longer survival",144 % of control
same,T/C,"T/C endpoint: median survival time, dose: 4.0 mg/kg/injection, schedule: Q01DX010 (ip), vehicle: water, higher T/C = longer survival",141 % of control
same,T/C,"T/C endpoint: median survival time, dose: 6.0 mg/kg/injection, schedule: Q01DX009 (ip), vehicle: saline, higher T/C = longer survival",140 % of control
same,T/C,"T/C endpoint: median survival time, dose: 8.0 mg/kg/injection, schedule: Q01DX009 (ip), vehicle: saline, evaluated on day 5, higher T/C = longer survival",140 and 161 % of control
same,T/C,"T/C endpoint: median survival time, dose: 8.0 mg/kg/injection, schedule: Q01DX009 (ip), vehicle: saline, evaluated on day 60, higher T/C = longer survival","130 [9 of 10 alive], 160, 164, 169 % of control"
same,T/C,"T/C endpoint: median survival time, dose: 8.0 mg/kg/injection, schedule: Q01DX009 (ip), vehicle: water, higher T/C = longer survival",145 % of control
same,T/C,"T/C endpoint: median survival time, dose: 8.0 mg/kg/injection, schedule: Q01DX010 (ip), vehicle: water, higher T/C = longer survival",139 % of control
same,T/C,"T/C endpoint: median survival time, dose: 12.0 mg/kg/injection, schedule: Q01DX005 (ip), vehicle: water, higher T/C = longer survival",139 % of control
same,T/C,"T/C endpoint: median survival time, dose: 16.0 mg/kg/injection, schedule: Q01DX009 (ip), vehicle: saline, evaluated on day 5, higher T/C = longer survival",167 and 170 % of control
same,T/C,"T/C endpoint: median survival time, dose: 16.0 mg/kg/injection, schedule: Q01DX009 (ip), vehicle: saline, evaluated on day 60, higher T/C = longer survival","130 [8 of 10 alive], 168, 174, 186 % of control"
same,survivor count,"T/C endpoint: median survival time, dose: 24.0 mg/kg/injection, schedule: Q01DX005 (ip), vehicle: water, higher T/C = longer survival",5 of 6
same,survivor count,"T/C endpoint: median survival time, dose: 24.0 mg/kg/injection, schedule: Q01DX009 (ip), vehicle: saline, higher T/C = longer survival",6 of 6
same,survivor count,"T/C endpoint: median survival time, dose: 24.0 mg/kg/injection, schedule: Q01DX009 (ip), vehicle: water, higher T/C = longer survival",10 of 10
same,survivor count,"T/C endpoint: median survival time, dose: 32.0 mg/kg/injection, schedule: Q01DX009 (ip), vehicle: saline, higher T/C = longer survival",10 of 10 (2×)
same,survivor count,"T/C endpoint: median survival time, dose: 32.0 mg/kg/injection, schedule: Q01DX009 (ip), vehicle: water, higher T/C = longer survival",10 of 10 and 9 of 9
same,survivor count,"T/C endpoint: median survival time, dose: 32.0 mg/kg/injection, schedule: Q01DX010 (ip), vehicle: water, higher T/C = longer survival",10 of 10
same,survivor count,"T/C endpoint: median tumor weight (est.), dose: 32.0 mg/kg/injection, schedule: Q01DX009 (ip), vehicle: water, higher T/C = larger tumour",1 of 10 on day 15 and 1 of 9 on day 14
CO[C@H]1C[C@](C)(O)Cc2cc3c(c(O)c21)C(=O)c1c(O)cc2c(c1C3=O)O[C@@H]1O[C@@]2(C)[C@H](O)[C@@H](N(C)C)[C@@H]1O,survivor count,"T/C endpoint: median survival time, dose: 1.56 mg/kg/injection, schedule: Q01DX009 (ip), vehicle: other, higher T/C = longer survival",6 of 6
same,survivor count,"T/C endpoint: median survival time, dose: 3.12 mg/kg/injection, schedule: Q01DX009 (ip), vehicle: other, higher T/C = longer survival",6 of 6
same,survivor count,"T/C endpoint: median survival time, dose: 6.25 mg/kg/injection, schedule: Q01DX009 (ip), vehicle: other, higher T/C = longer survival",6 of 6
same,survivor count,"T/C endpoint: median survival time, dose: 12.5 mg/kg/injection, schedule: Q01DX009 (ip), vehicle: other, higher T/C = longer survival",6 of 6
same,survivor count,"T/C endpoint: median survival time, dose: 25.0 mg/kg/injection, schedule: Q01DX009 (ip), vehicle: other, higher T/C = longer survival",10 of 10
O=[N+]([O-])O.[Ga],survivor count,"T/C endpoint: median survival time, dose: 8.0 mg/kg/injection, schedule: Q01DX009 (ip), vehicle: saline, higher T/C = longer survival",10 of 10
same,T/C,"T/C endpoint: median survival time, dose: 60.0 mg/kg/injection, schedule: Q01DX009 (ip), vehicle: saline, higher T/C = longer survival",130 % of control
same,survivor count,"T/C endpoint: median survival time, dose: 300.0 mg/kg/injection, schedule: Q04DX003 (ip), vehicle: saline, higher T/C = longer survival",9 of 9
same,survivor count,"T/C endpoint: median survival time, dose: 450.0 mg/kg/injection, schedule: Q04DX003 (ip), vehicle: saline, higher T/C = longer survival",9 of 10
same,survivor count,"T/C endpoint: median survival time, dose: 900.0 mg/kg/injection, schedule: Q01DX001 (ip), vehicle: saline, higher T/C = longer survival",5 of 10
CN(C)/N=N/c1nc[nH]c1C(N)=O,T/C,"T/C endpoint: median survival time, dose: 37.5 mg/kg/injection, schedule: Q01DX009 (ip), vehicle: Klucel (hydroxypropylcellulose) (HPC), higher T/C = longer survival",134 [5 of 6 alive] and 139 % of control
same,T/C,"T/C endpoint: median survival time, dose: 75.0 mg/kg/injection, schedule: Q01DX009 (ip), vehicle: Klucel (hydroxypropylcellulose) (HPC), higher T/C = longer survival",126 % of control
same,survivor count,"T/C endpoint: median survival time, dose: 150.0 mg/kg/injection, schedule: Q01DX009 (ip), vehicle: Klucel (hydroxypropylcellulose) (HPC), higher T/C = longer survival",5 of 5
same,survivor count,"T/C endpoint: median survival time, dose: 150.0 mg/kg/injection, schedule: Q01DX009 (ip), vehicle: saline, higher T/C = longer survival",6 of 6
same,survivor count,"T/C endpoint: median survival time, dose: 200.0 mg/kg/injection, schedule: Q01DX009 (ip), vehicle: Klucel (hydroxypropylcellulose) (HPC), higher T/C = longer survival",10 of 10
same,survivor count,"T/C endpoint: median survival time, dose: 300.0 mg/kg/injection, schedule: Q01DX009 (ip), vehicle: Klucel (hydroxypropylcellulose) (HPC), higher T/C = longer survival",6 of 6
same,T/C,"T/C endpoint: median survival time, dose: 300.0 mg/kg/injection, schedule: Q01DX009 (ip), vehicle: saline with Tween-80, higher T/C = longer survival",143 % of control
same,survivor count,[1],5 of 6
same,survivor count,"T/C endpoint: median survival time, dose: 400.0 mg/kg/injection, schedule: Q01DX009 (ip), vehicle: Klucel (hydroxypropylcellulose) (HPC), higher T/C = longer survival",10 of 10
COc1cc([C@@H]2c3cc4c(cc3[C@@H](OC3OC5COC(C)OC5C(O)C3O)[C@H]3COC(=O)[C@H]23)OCO4)cc(OC)c1O (some centres not stated),T/C,"T/C endpoint: median survival time, dose: 4.5 mg/kg/injection, schedule: Q01DX009 (ip), vehicle: saline, higher T/C = longer survival",135 % of control
same,T/C,"T/C endpoint: median survival time, dose: 18.0 mg/kg/injection, schedule: Q04DX003 (ip), vehicle: saline, higher T/C = longer survival",142 % of control
same,T/C,"T/C endpoint: median survival time, dose: 27.0 mg/kg/injection, schedule: Q04DX003 (ip), vehicle: saline, higher T/C = longer survival",136 % of control
same,survivor count,"T/C endpoint: median survival time, dose: 75.0 mg/kg/injection, schedule: Q01DX001 (ip), vehicle: saline, higher T/C = longer survival",10 of 10
COc1cccc2c1C(=O)c1c(O)c3c(c(O)c1C2=O)C[C@@](O)(C(=O)COC(=O)Cc1cccc2ccccc12)C[C@@H]3OC1CC(N)C(O)C(C)O1 (some centres not stated),T/C,"T/C endpoint: median survival time, dose: 0.5 mg/kg/injection, schedule: Q01DX009 (ip), vehicle: saline with Tween-80, higher T/C = longer survival",142 % of control
same,survivor count,"T/C endpoint: median survival time, dose: 8.0 mg/kg/injection, schedule: Q01DX009 (ip), vehicle: saline with Tween-80, higher T/C = longer survival",10 of 10
same,survivor count,"T/C endpoint: median survival time, dose: 16.0 mg/kg/injection, schedule: Q01DX009 (ip), vehicle: saline with Tween-80, higher T/C = longer survival",10 of 10
N=c1ccn2c(n1)OC1C(O)C(CO)OC12 (configuration not stated),survivor count,[1],10 of 10
same,survivor count,"T/C endpoint: median survival time, dose: 600.0 mg/kg/injection, schedule: Q01DX009 (ip), vehicle: saline, higher T/C = longer survival",10 of 10
COC(=O)C1C2CC3c4[nH]c5cc(OC)ccc5c4CCN3CC2CC(OC2CCCCO2)C1OC (configuration not stated),survivor count,"T/C endpoint: median survival time, dose: 6.25 mg/kg/injection, schedule: Q01DX009 (ip), vehicle: Klucel (hydroxypropylcellulose) (HPC), higher T/C = longer survival",10 of 10
same,survivor count,"T/C endpoint: median survival time, dose: 12.5 mg/kg/injection, schedule: Q01DX009 (ip), vehicle: Klucel (hydroxypropylcellulose) (HPC), higher T/C = longer survival",10 of 10
same,survivor count,"T/C endpoint: median survival time, dose: 25.0 mg/kg/injection, schedule: Q01DX009 (ip), vehicle: Klucel (hydroxypropylcellulose) (HPC), higher T/C = longer survival",10 of 10
same,survivor count,"T/C endpoint: median survival time, dose: 50.0 mg/kg/injection, schedule: Q01DX009 (ip), vehicle: Klucel (hydroxypropylcellulose) (HPC), higher T/C = longer survival",10 of 10
same,survivor count,"T/C endpoint: median survival time, dose: 100.0 mg/kg/injection, schedule: Q01DX009 (ip), vehicle: Klucel (hydroxypropylcellulose) (HPC), higher T/C = longer survival",10 of 10
CC1(C)N=C(N)N=C(N)N1c1ccc(OCCCNC(=O)Nc2cccc(S(=O)(=O)F)c2)c(Cl)c1,T/C,"T/C endpoint: median survival time, dose: 25.0 mg/kg/injection, schedule: Q01DX009 (ip), vehicle: saline, higher T/C = longer survival",138 % of control
CC1(C)CC(O)(C(Cl)c2ccccc2)C(=O)c2ccccc21 (configuration not stated),T/C,"T/C endpoint: median tumor weight (est.), dose: 88.0 mg/kg/injection, schedule: Q01DX009 (ip), vehicle: distilled water + Tween-80, evaluated on day 14, higher T/C = larger tumour",139 % of control
CNc1ncnc2c1cnn2C,survivor count,"T/C endpoint: median survival time, dose: 40.0 mg/kg/injection, schedule: Q01DX009 (ip), vehicle: saline, higher T/C = longer survival",10 of 10
same,survivor count,"T/C endpoint: median survival time, dose: 80.0 mg/kg/injection, schedule: Q01DX009 (ip), vehicle: saline, higher T/C = longer survival",10 of 10
O=C1OC(C(O)CO)C(O)=C1O (configuration not stated),survivor count,"T/C endpoint: median survival time, dose: 1600.0 mg/kg/injection, schedule: Q01DX009 (ip), vehicle: saline, higher T/C = longer survival",4 of 10
